Hit rate of the full screen: of about 1,400 compounds, about 50 (4%) were called active.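 Rule for the calls: active = fitted curve reaches 30% CPE protection at or below the top valid dose, with every test run called active; inconclusive = test runs disagree, some active and some not; inactive = every test run inactive, including effects in the wrong direction.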 The list shows a part of the results. Results with a measured potency or affinity are listed apart.
Assay: Dengue virus 2 cytopathic effect protection, dose response, BHK-21 cells, ATP luminescence, cherry-pick (AID 687031);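 note: 0% = infected DMSO wells and 100% = uninfected cell wells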
Conditions: BHK-21 DENV2 CPE protection, 5 d; at 19.5 µM (top of the series) unless noted

Compound	CPE protection (higher = active)
Cc1nc2ccccc2c(=O)n1-c1nccs1	inactive: -3.46%
O=C(CN1CC(c2ccccc2)CC1=O)Nc1ccccc1 (stereo not given)	inactive: 26.9%
COC(=O)C1C(c2ccc(C)cc2)CC2CCC1N2C (stereo not given)	inactive: -12.5%
CCOC(=O)c1cccc(C2=C(CNC(C)=O)[C@H]3CC[C@@H](C2)N3Cc2ccccc2)c1	inactive: 7.88%
O=S(=O)(NC1CCCCCCC1)OCC(Cl)(Cl)Cl	inactive: -21.7%
COc1ccc(CC(=O)N(CCN(C)C)CC2CCCN(Cc3ccccc3F)C2)cc1 (stereo not given)	inactive: 9.89%
c1cc2c(cc1C1OCC3C(c4ccc5c(c4)OCO5)OCC13)OCO2 (stereo not given)	inactive: -18.9%
CN(C(=O)Oc1cccc2ccccc12)C1C=CCC1 (stereo not given)	inactive: -4.29%
NP(=O)(OCCCc1ccccc1)Oc1ccc(Cl)cc1 (stereo not given)	inactive: 13.9%
COC(=O)[C@H]1N[C@H]2c3ccc(C4=CCCC4)c(=O)n3C[C@H]2[C@@H]1CO	inactive: 21.3% [at 21 µM]
Cc1c(CCC(=O)N2C[C@H]3C[C@@H](C2)c2cccc(=O)n2C3)c(=O)oc2c(C)c(O)ccc12	inactive: 2.65%
O=C(Nc1ccc(C(F)(F)F)cc1)OC1CN2CCC1CC2 (stereo not given)	inactive: -8.6%
CCCCN1C(=N)C(CC)(CC)C(=O)NC1=O	inactive: -0.341%
O=S(=O)(NC1CCCC1)OCC(Cl)(Cl)Cl	inactive: -14%
C/C=C/c1ccc([C@@H]2[C@H]3CN(C(=O)Cc4ccncc4)CCCCN3[C@H]2CO)cc1	inactive: -8.54%
CCN1CCC(NCC2CCCCC2)CC1	inactive: 1.94%
O=S(=O)(c1cc(Cl)cc(Cl)c1)N1Cc2cc(N3CCOCC3)ccc2-n2nncc2C1	inactive: -14.3%
COc1ccc(SCC2CN(C)CCC2c2ccc(F)cc2)cc1 (stereo not given)	inactive: 26.4%
O=C(CCC(=O)N1C[C@H]2C[C@@H](C1)c1cccc(=O)n1C2)NCc1ccc(F)cc1	inactive: 15%
C[C@H]1CN([C@@H](C)CO)C(=O)c2c(c3ccccc3n2C)-c2ccccc2CO[C@H]1CN(C)C(=O)Oc1ccccc1	inactive: -5.91% [at 21 µM]

Quoted at random: 2 records from the list
Compound	CPE protection (higher = active)
O=C(Nc1ccc(C(F)(F)F)cc1)OC1CN2CCC1CC2 (stereo not given)	inactive: -8.6%
O=S(=O)(NC1CCCCCCC1)OCC(Cl)(Cl)Cl	inactive: -21.7%

Later entries:

Compound	CPE protection (higher = active)
COc1ccc(CCNCc2cccn2C)cc1OC	inactive: -1.42%
C=CCCC1(C2=CCCCC2)C(=O)NC(=O)NC1=O	inactive: 20.7%
Cc1[nH]c2ccc(O)cc2c1CCN	inactive: -10.5%
C/C=C/c1ccc([C@H]2[C@@H](CO)N3CCCCN(C(=O)Cc4ccncc4)C[C@@H]23)cc1	inactive: 29.2%
CCOC(=O)c1cc2cc(OC)ccc2n1C1CCN(Cc2ccccc2)CC1	inactive: -4.92%
O=C(NCCN1CCC2(CC1)C(=O)NCN2c1ccccc1)c1ccccc1F	inactive: -0.359%
O=c1[nH]c(=O)n(Cc2ccc(F)cc2)c(O)c1/C=N/Nc1ccccc1	inactive: -13.6%
Nc1ccc(CC2=NCCN2)cc1	inactive: 3.2%
C/C=C/c1ccc2c(c1)OCO2	inactive: 16.8%
CCC(c1ccc(C)cc1)N1C(=O)C2C3CCC(O3)C2C1=O (stereo not given)	inactive: 16.1%
O=C(CCC(=O)N1C[C@H]2C[C@@H](C1)c1cccc(=O)n1C2)NCc1ccccc1C(F)(F)F	inactive: 21%
CN(C)CC1CSCCC1(O)c1ccc(C(F)(F)F)cc1 (stereo not given)	inactive: 17.4%
COC(=O)[C@@H]1[C@@H](CO)[C@@H]2Cn3c(ccc(-c4ccncc4)c3=O)[C@H]1N2CCc1ccccc1	inactive: 0.193%
Cc1cc(=O)oc2cc(OCC(=O)N3CCC(C(=O)O)(c4ccccc4)CC3)ccc12	inactive: -3.59%
CN1C2CCC1CC(OC(=O)c1cccc(O)c1)C2 (stereo not given)	inactive: 12.1%
N#Cc1ccc(CN2Cc3ccccc3-n3nncc3C2)cc1	inactive: -8.89%
CCC(C)c1cnc(CC(C)C)c(=O)n1O (stereo not given)	inactive: 9.27%
Clc1ccc([C@H]2CC3CCC2N3)cn1 (stereo not given in full)	inactive: -11.9%
COc1ccc(CC(=O)N2C[C@H]3C[C@@H](C2)c2cccc(=O)n2C3)cc1	inactive: -2.6%
Fc1ccccc1CNCCc1c[nH]c2ccccc12	inactive: -11.2%
